The text below walks through data of patent US20240358831A1, “SELECTION OF IMMUNE CELLS USING PEPTIDE MHC COMPLEXES GENERATED BY CONDITIONAL LIGAND EXCHANGE” (IMMATICS US, INC., priority 2021, published 2024).

A short description of the data set: Detection frequency of HLA presented peptides on normal tissue by LC-MS. On the set-up: species or system human. The note with it: for House-keeping peptide: YES/NO, frequently presented in a tissue independent manner; for Normals frequency: percentage of normal tissue samples of the relevant HLA allotype where the peptide was detected.

With “AEIDARNDSF (listed as Homo sapiens) [SPTBN1-001, parental peptide]”, the House-keeping peptide result was “YES” and the Normals frequency turned out to be 90%.
Consider “AESIVVHTY (listed as Homo sapiens) [CSE1-004, parental peptide]”, for which the House-keeping peptide entry is recorded as “YES” and the Normals frequency stood at 96%.
For “ALFLTLTTK (listed as Homo sapiens) [GIBB-001, parental peptide]” the same measures were “YES” and 93%.
The like results for “APRTVALTAL (listed as Homo sapiens) [HLA-DPB1-001, parental peptide]” were, in that order, “YES” and 92%.
For the sequence “AYVHMVTHF (listed as Homo sapiens) [TEG-001, parental peptide]”, the House-keeping peptide entry is “YES” and the Normals frequency was 96%.
As to “DAVVKHVL (listed as Homo sapiens) [COPA-007, parental peptide]”, the House-keeping peptide entry is on record as “YES” and the Normals frequency is recorded as 95%.
The like results for “DLNEKARAL (listed as Homo sapiens) [PDCD10-001, parental peptide]” were, in that order, “YES” and 56%.
In the case of “FGLARAFSL (listed as Homo sapiens) [MIR286-001, parental peptide]”, the House-keeping peptide entry is “YES” and the Normals frequency came to 70%.
The like results for “IIYKGGTSR (listed as Homo sapiens) [GSN-001, parental peptide]” were, in that order, “YES” and 69%.
For “ILMEHIHKL (listed as Homo sapiens) [RPL19-001, parental peptide]” the same measures were “YES” and 75%.
In the case of “KYPENFFLL (listed as Homo sapiens) [PPP1CA-001, parental peptide]”, the House-keeping peptide entry is given as “YES” and the Normals frequency turned out to be 100%.
As to “LLDQGQLNKY (listed as Homo sapiens) [CLTC-001, parental peptide]”, the House-keeping peptide entry is listed as “YES” and the Normals frequency was determined as 96%.
The like results for “NENSLFKSL (listed as Homo sapiens) [CLTC-005, parental peptide]” were, in that order, “YES” and 93%.
Sequence “NIKKKQEAL (listed as Homo sapiens) [SPTAN-001, parental peptide]” returned a Normals frequency of 2%.
Regarding “RLFVGSIPK (listed as Homo sapiens) [HNRNPR-001, parental peptide]”, the House-keeping peptide result is “YES” and the Normals frequency was 96%.
As to “SPRPPLISV (listed as Homo sapiens) [MUDENG-001, parental peptide]”, the House-keeping peptide entry is recorded as “YES” and the Normals frequency was 72%.
On to “STDPRPASY (listed as Homo sapiens) [AXIN1-002, parental peptide]”, for which the House-keeping peptide entry is listed as “YES” and the Normals frequency was determined as 93%.
Turning to “STETSTVLY (listed as Homo sapiens) [MUC16-009, parental peptide]”, the Normals frequency was 0%.
Same read-out and setting: in the case of “TPKEKAQAL (listed as Homo sapiens) [MKI-002, parental peptide]” it was 0%.
In the case of “TVKQKYLSF (listed as Homo sapiens) [LOC646214-002, parental peptide]”, the House-keeping peptide result was “YES” and the Normals frequency was 30%.
On to “VTELHVISY (listed as Homo sapiens) [RNF213-009, parental peptide]”, for which the House-keeping peptide entry is reported as “YES” and the Normals frequency is given as 95%.
For “YLLPAIVHI (listed as Homo sapiens) [DDX5-001, parental peptide]” the same measures were “YES” and 98%.
